The list shows only some results of the screen, not a fair sample: it gathers some chemical classes. Not every dose and run of a compound is shown. T/C: endpoint of the treated group in % of that of the vehicle group. Some doses have a count of surviving animals in place of a T/C: the source files T/C as zero there, which appears to mark a toxic dose or a test without result, not a measured value. Some survivor counts are full or nearly so, which does not show that the dose was tolerated: survival well below the control is almost never listed, so the zero probably covers shortened survival too. Survivors were counted at the toxicity check, usually on the fifth day, unless a day is given; later deaths do not show. Schedule codes are those of the source, read here as Q, the interval in days (D) or hours (H), X, the number of doses. Some doses were run more than once; their values stand side by side, smallest first. Where survival is the endpoint, this PubChem deposit counts one and a half times the control or more as active, and values a quarter to a half above the control carry no call in these data; other NCI protocols may use other cut-offs.
Tested on: BDF1 mice, P815 leukemia ip, survival T/C
Test: NCI In Vivo Anticancer Drug Screen. Data for tumor model P815 Mast Cell Leukemia (Ascitic) (intraperitoneal) in B6D2F1 (BDF1) mice
Details: T/C endpoint: survival time, mean or median, schedule: Q01DX010 (ip), vehicle: saline, higher T/C = longer survival
Experimental: The antitumor activity of compounds was measured in mice bearing transplantable tumors. Survival or tumor size were measured and the results are expressed as the measurement made in the treated group (T) divided by the measurement made in the vehicle treated control group (C). The tumor model used in this assay is P815 Mast Cell Leukemia (Ascitic) (intraperitoneal) in B6D2F1 (BDF1) mice

NC1CCCCC1.O=P(O)(N(CCCl)CCCl)N1CC1
T/C (dose: 1.25 mg/kg/injection): 90 % of control
T/C (dose: 2.5 mg/kg/injection): 110 and 122 % of control
T/C (dose: 5.0 mg/kg/injection): 122 and 140 % of control
T/C (dose: 10.0 mg/kg/injection): 216 and 225 % of control
T/C (dose: 20.0 mg/kg/injection): 205 % of control

CN(N=O)C(=N)N[N+](=O)[O-]
T/C (dose: 8.0 mg/kg/injection): 154 and 163 % of control
T/C (dose: 16.0 mg/kg/injection): 159 and 168 % of control
T/C (dose: 32.0 mg/kg/injection): 90 and 95 % of control
survivor count (dose: 64.0 mg/kg/injection): 4 of 6 and 6 of 6

Cc1[nH]c(=O)[nH]c(=O)c1N(CCCl)CCCl
T/C (dose: 0.5 mg/kg/injection): 105 and 112 % of control
T/C (dose: 1.0 mg/kg/injection): 111 and 112 % of control
T/C (dose: 2.0 mg/kg/injection): 105 and 137 % of control
T/C (dose: 4.0 mg/kg/injection): 87 % of control
survivor count (dose: 4.0 mg/kg/injection): 6 of 6
